Measurements: article PMC9943673
These are yes or no findings as the source states them, for the method shown. In cells and extracts the contact can be indirect. Here binding means that the protein was enriched with, or labelled near, the bait; the list need not be complete. Tags and fused reporters may be left off the sequences shown.

Sequences of proteins named here, by UniProt entry; tags and fusion partners are left off.
UniProt P54274: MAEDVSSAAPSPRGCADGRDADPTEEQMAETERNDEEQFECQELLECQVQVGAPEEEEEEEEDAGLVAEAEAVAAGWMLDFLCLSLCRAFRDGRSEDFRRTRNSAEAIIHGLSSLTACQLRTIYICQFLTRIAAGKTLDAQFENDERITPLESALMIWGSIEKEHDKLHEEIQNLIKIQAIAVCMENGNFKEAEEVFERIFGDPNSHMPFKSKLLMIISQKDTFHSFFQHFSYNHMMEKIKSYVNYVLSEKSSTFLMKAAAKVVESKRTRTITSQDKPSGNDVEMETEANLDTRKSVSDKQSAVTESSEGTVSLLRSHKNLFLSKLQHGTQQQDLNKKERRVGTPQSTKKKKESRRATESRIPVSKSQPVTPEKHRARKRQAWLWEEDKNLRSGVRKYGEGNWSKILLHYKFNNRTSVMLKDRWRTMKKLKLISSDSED

T1: PPM1D-D314A-BioID2 fusion protein (human) (UniProt O15297)
T1 sequence: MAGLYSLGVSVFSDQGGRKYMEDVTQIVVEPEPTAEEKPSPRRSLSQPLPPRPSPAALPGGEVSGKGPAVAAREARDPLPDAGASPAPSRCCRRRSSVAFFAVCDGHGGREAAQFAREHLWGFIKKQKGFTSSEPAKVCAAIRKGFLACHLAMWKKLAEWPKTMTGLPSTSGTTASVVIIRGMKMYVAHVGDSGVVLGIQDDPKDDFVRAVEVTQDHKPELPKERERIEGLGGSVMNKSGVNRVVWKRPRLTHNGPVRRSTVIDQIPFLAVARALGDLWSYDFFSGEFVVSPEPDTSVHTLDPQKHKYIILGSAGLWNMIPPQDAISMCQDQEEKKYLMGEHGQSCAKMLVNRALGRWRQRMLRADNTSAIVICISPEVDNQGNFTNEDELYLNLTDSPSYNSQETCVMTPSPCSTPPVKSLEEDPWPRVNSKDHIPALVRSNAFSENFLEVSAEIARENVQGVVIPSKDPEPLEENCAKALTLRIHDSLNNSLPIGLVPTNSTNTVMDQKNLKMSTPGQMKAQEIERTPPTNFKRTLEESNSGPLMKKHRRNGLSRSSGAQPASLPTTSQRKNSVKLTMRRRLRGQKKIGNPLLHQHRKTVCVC

B1: telomere-associated exonuclease DCLRE1B, endogenous in HEK293 (enzyme, UniProt Q9H816 1-532)
chain: MNGVLIPHTPIAVDFWSLRRAGTARLFFLSHMHSDHTVGLSSTWARPLYCSPITAHLLHRHLQVSKQWIQALEVGESHVLPLDEIGQETMTVTLLDANHCPGSVMFLFEGYFGTILYTGDFRYTPSMLKEPALTLGKQIHTLYLDNTNCNPALVLPSRQEAAHQIVQLIRKHPQHNIKIGLYSLGKESLLEQLALEFQTWVVLSPRRLELVQLLGLADVFTVEEKAGRIHAVDHMEICHSNMLRWNQTHPTIAILPTSRKIHSSHPDIHVIPYSDHSSYSELRAFVAALKPCQVVPIVSRRPCGGFQDSLSPRISVPLIPDSVQQYMSSSSRKPSLLWLLERRLKRPRTQGVVFESPEESADQSQADRDSKKAKKEKLSPWPADLEKQPSHHPLRIKKQLFPDLYSKEWNKAVPFCESQKRVTMLTAPLGFSVHLRSTDEEFISQKTREEIGLGSPLVPMGDDDGGPEATGNQSAWMGHGSPLSHSSKGTPLLATEFRGLALKYLLTPVNFFQAGYSSRRFDQQVEKYHKPC
B2: TRF2-interacting telomeric protein 1 (RAP1), endogenous in HEK293 (protein, UniProt Q9NYB0 1-399)
chain: MAEAMDLGKDPNGPTHSSTLFVRDDGSSMSFYVRPSPAKRRLSTLILHGGGTVCRVQEPGAVLLAQPGEALAEASGDFISTQYILDCVERNERLELEAYRLGPASAADTGSEAKPGALAEGAAEPEPQRHAGRIAFTDADDVAILTYVKENARSPSSVTGNALWKAMEKSSLTQHSWQSLKDRYLKHLRGQEHKYLLGDAPVSPSSQKLKRKAEEDPEAADSGEPQNKRTPDLPEEEYVKEEIQENEEAVKKMLVEATREFEEVVVDESPPDFEIHITMCDDDPPTPEEDSETQPDEEEEEEEEKVSQPEVGAAIKIIRQLMEKFNLDLSTVTQAFLKNSGELEATSAFLASGQRADGYPIWSRQDDIDLQKDDEDTREALVKKFGAQNVARRIEFRKK

target: T1, PPM1D-D314A-BioID2 fusion protein (human); experiment: proximity labelling; BioID2 in stable HEK293 cells, 50 uM biotin for 5 h, denaturing lysis, streptavidin beads, mass spectrometry, against empty BioID2 (n = 3, FDR < 0.05)

binding, binds:
telomeric repeat-binding factor 1 (TRF1), endogenous in HEK293 (from UniProt P54274 1-439)
telomeric repeat-binding factor 2 (TRF2), endogenous in HEK293 (from UniProt Q15554-3 1-542)
B1
B2
